From publication PMC9252588 (Drug Design, Development and Therapy, 2022)
“Also recorded” adds a separate entry of the source.

How the values were obtained:
[1] = system: buspirone N-dealkylation (formation of 1-PP); assay: in vitro; settings: rat, rat liver microsomes, probe buspirone 50 μM
[2] = system: buspirone 6′-hydroxylation (formation of 6′-OH buspirone); assay: in vitro; settings: rat, rat liver microsomes, probe buspirone 50 μM
[3] = system: rat liver microsomes (RLMs); assay: Enzymatic kinetics of axitinib inhibition of buspirone metabolism in RLMs; format: in vitro ADME
[4] = system: rat liver microsomes (RLMs); settings: axitinib 100 μM

Structure (SMILES): CNC(=O)c1ccccc1Sc1ccc2c(/C=C/c3ccccn3)n[nH]c2c1 [axitinib]
- IC50 at 40 min [1]: 9.74 µM
- IC50 at 40 min [2]: 15.8 µM
- inhibition pattern ([3]; 6′-hydroxylation and N-dealkylation, Lineweaver–Burk plot): noncompetitive inhibition; also recorded: noncompetitive inhibitor
- Ki ([3]; buspirone N-dealkylation, axitinib 0–30 μM): 2.61 µM
- inhibition of buspirone N-dealkylation [4]: 98.4%
- inhibition of buspirone metabolism, 6′-hydroxylation pathway [4]: 97.4%
